PubChem BioAssay AID1259424, University of Nebraska Medical Center | 2018
Screen: 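Seek colon cancer survival genes behaving like KSR1, using a six-gene signature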 (primary screen). Cells: human HCT116 colon cancer cells. Reagent: siRNA pool against human genes, 50 nM. Read-out: 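Log2 levels of six mRNAs (branched-DNA multiplex), adjusted by two reference genes and the non-targeting median, then scored against the average KSR1 knockdown pattern as Pearson r and euclidean distance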. Scale: mean correlation with KSR1 profile: higher = expression change more like KSR1 knockdown.
This is a random part of about 14,000 deposited reagents. 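Higher correlation or smaller distance means closer resemblance to KSR1 loss; control wells, including KSR1 knockdowns, recur on many plates.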 Not all columns of the deposit are shown. Reagent sequences are not shown. The record does not give: the time to read-out.

mean correlation with KSR1 profile	Target gene
-0.0927	KCNJ16 (potassium inwardly rectifying channel subfamily J member 16)
-0.386	LETMD1 (LETM1 domain containing 1)
0.288	BLCAP (BLCAP apoptosis inducing factor)
-0.0921	TIMM8B (translocase of inner mitochondrial membrane 8 homolog B)
-0.0877	MAP3K13 (mitogen-activated protein kinase kinase kinase 13)
0.736	VGLL4 (vestigial like family member 4)
0.248	H1-3 (H1.3 linker histone, cluster member)
-0.298	PKNOX2 (PBX/knotted 1 homeobox 2)
-0.337	TCAF1 (TRPM8 channel associated factor 1)
0.143	ZMYM4 (zinc finger MYM-type containing 4)
-0.0441	ZBED5 (zinc finger BED-type containing 5)
-0.478	KIF1B (kinesin family member 1B)
-0.525	MGLL (monoglyceride lipase)
-0.409	ISLR2 (immunoglobulin superfamily containing leucine rich repeat 2)
-0.0029	EIF3FP2
-0.129	IQSEC3 (IQ motif and Sec7 domain ArfGEF 3)
0.153	FBXL18 (F-box and leucine rich repeat protein 18)
0.355	BCS1L (BCS1 ubiquinol-cytochrome c reductase complex chaperone)
0.139	PIN1 (peptidylprolyl cis/trans isomerase, NIMA-interacting 1)
0.721	MTPAP (mitochondrial poly(A) polymerase)
-0.387	ZDHHC17 (zDHHC palmitoyltransferase 17)
0.292	CCDC181 (coiled-coil domain containing 181)
0.486	PLCD4 (phospholipase C delta 4)
0.736	HOXC11 (homeobox C11)
-0.473	TACSTD2 (tumor associated calcium signal transducer 2)
-0.202	RTN4 (reticulon 4)
-0.489	RRN3P1 (RRN3 pseudogene 1)
0.506	TRMT2B (tRNA methyltransferase 2B)
0.142	SATB1 (SATB homeobox 1)
0.8	LRRC61 (leucine rich repeat containing 61)
0.472	SLC12A4
-0.132	LYST (lysosomal trafficking regulator)
-0.495	EPM2A (EPM2A glucan phosphatase, laforin)
0.344	TRAPPC9 (trafficking protein particle complex subunit 9)
